Data reported in article PMC7819943, “Rice protein-binding microarrays: a tool to detect cis-acting elements near promoter regions in rice”.
The list shows a part of the results.

target: T1, OsSMF1 (Oryza sativa, UniProt Q6ZLB0 1-436); assay: protein-binding microarray (RPBM); PBS, 2% BSA, 51.3 ng/ul salmon testes DNA, 50 uM zinc acetate, 200 nM TF, 25 C, 1 h; high values mean tight binding; conditions: protein: recombinant; tags: N-terminal polyhistidine and DsRed monomer fusion (pET32a); chain copies: 2; label: CyDye5-dUTP incorporated in the synthesized complementary strand; 3' TTTTT single-stranded linker to array surface; dsDNA, one strand shown
T1 sequence: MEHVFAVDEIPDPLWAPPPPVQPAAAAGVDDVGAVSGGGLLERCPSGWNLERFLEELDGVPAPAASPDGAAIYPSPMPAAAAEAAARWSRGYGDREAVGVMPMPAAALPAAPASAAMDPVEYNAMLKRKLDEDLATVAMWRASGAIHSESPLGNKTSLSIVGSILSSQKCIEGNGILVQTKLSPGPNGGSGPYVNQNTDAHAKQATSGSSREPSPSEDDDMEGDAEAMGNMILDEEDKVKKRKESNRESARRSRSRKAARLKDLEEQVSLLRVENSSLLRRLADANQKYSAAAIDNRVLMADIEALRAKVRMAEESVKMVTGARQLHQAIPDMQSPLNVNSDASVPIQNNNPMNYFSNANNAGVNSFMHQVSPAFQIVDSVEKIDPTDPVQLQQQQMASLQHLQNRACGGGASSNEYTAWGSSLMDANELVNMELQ
Outline: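 Polyhistidine-tagged DsRed fusions of transcription factors, joined at the N-terminus, were expressed in E. coli BL21-CodonPlus and isolated on Ni–NTA. They were incubated at 200 nM for 1 h at 25 °C on a custom Agilent array, double-stranded and BSA-blocked, in PBS with 2% BSA, salmon testes DNA and 50 µM zinc acetate. The binding signal is per-feature fluorescence intensity (arbitrary units) read on an Axon 4000B scanner after washing.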

“TGATGGGGAAAAGAATATGCCACCTCATTGGGCTTTTATCCGGAGTCACCTAGTGCAG” was tested. Which binding signal did it give?
Its binding signal is 5600 fluorescence intensity (a.u.).

“ACGAAATCGACGCACGTGTAGACATCATGTGACACACAGACGGAGTCACCTAGTGCAG” was tested. Which binding signal did it give?
Its binding signal is 5620 fluorescence intensity (a.u.).

“GCGGTCGGTAGCTGTACATACGTCACCAGTTCGTACGGTGCGGAGTCACCTAGTGCAG” was tested. Which binding signal did it give?
The binding signal was 13200 fluorescence intensity (a.u.).

“GTAGTGCACTAGTGCGTCACACTCACACACACACACAAGCCGGAGTCACCTAGTGCAG” was tested. Which binding signal did it give?
Its binding signal is 4100 fluorescence intensity (a.u.).

With “GCCTCTTGGCGCCGTCGACCTCCGCGCCGAGGAGGCCCTGCGGAGTCACCTAGTGCAG” as the sequence, how does the binding signal read?
Its binding signal is 5520 fluorescence intensity (a.u.).

“GTGAGATGACGGCATCATCTGATGGTTCTATAAATACTCCCGGAGTCACCTAGTGCAG” was tested. Which binding signal did it give?
Its binding signal is 3940 fluorescence intensity (a.u.).

How did the binding signal turn out when “GCGCAGCTGGCGCGGAGCATCCACGAGCTCGCGGCCACGTCGGAGTCACCTAGTGCAG” was run?
The binding signal was 3840 fluorescence intensity (a.u.).

Which binding signal does the source give for “CTCAAAACCCAAAATGTATAGATGACATTTCAATTCAAACCGGAGTCACCTAGTGCAG” here?
The binding signal was 3270 fluorescence intensity (a.u.).

“ATGGGTAATATGTCTCACCCTGCTTGGTTGGTTTCGCATTCGGAGTCACCTAGTGCAG” was tested. Which binding signal did it give?
Its binding signal is 34000 fluorescence intensity (a.u.).

With “ATATGAATATTACTTTAAGTGTGACTCATAATTCTATTAACGGAGTCACCTAGTGCAG” as the sequence, how does the binding signal read?
Its binding signal is 4680 fluorescence intensity (a.u.).

With “TGACATGATGGGCCACCCTGTCAGCCTCTCATCGTCTCCACGGAGTCACCTAGTGCAG” as the sequence, how does the binding signal read?
Its binding signal is 5560 fluorescence intensity (a.u.).

“AAGAGAAGGGTCACTAATACGTGGACCCTACATATTGACGCGGAGTCACCTAGTGCAG” was tested. Which binding signal did it give?
The binding signal was 7690 fluorescence intensity (a.u.).

With “ATCAAGCTTTCGTCAGATCTCACGCTTATTTCTTCTCTCCCGGAGTCACCTAGTGCAG” as the sequence, how does the binding signal read?
The binding signal was 3480 fluorescence intensity (a.u.).

How did the binding signal turn out when “AGTGAAAATCGTGATAAACATCATTGATGACGTGAATAATCGGAGTCACCTAGTGCAG” was run?
Its binding signal is 3640 fluorescence intensity (a.u.).

For “CAGGCTCCTCCTCACAACGCCGAAGCCACGGGATGACGCTCGGAGTCACCTAGTGCAG”, which binding signal is on record?
The binding signal was 3410 fluorescence intensity (a.u.).

With “GGGTACCAGGAGGGAGCACACGTTCACCACGTGGAATCTACGGAGTCACCTAGTGCAG” as the sequence, how does the binding signal read?
The binding signal was 5750 fluorescence intensity (a.u.).

How did the binding signal turn out when “CCTTTACTGTCTCAGCAACGTGCGTGGCTTCTTTTAAGTCCGGAGTCACCTAGTGCAG” was run?
Its binding signal is 6410 fluorescence intensity (a.u.).

Which binding signal does the source give for “CTCAGTAAAATCAACACTAGTTAATCTGGTCAACACATTACGGAGTCACCTAGTGCAG” here?
The binding signal was 29500 fluorescence intensity (a.u.).

For “TTCCCCACCCACCTCCCACCCTCCCCTCTCCAACCACACCCGGAGTCACCTAGTGCAG”, which binding signal is on record?
Its binding signal is 3320 fluorescence intensity (a.u.).

How did the binding signal turn out when “CCACGCTAACTCAGCCACCACGTAGGCCAAATCCGGGATCCGGAGTCACCTAGTGCAG” was run?
The binding signal was 5500 fluorescence intensity (a.u.).

Which binding signal does the source give for “GACTACGCGTACGCCACGCCACAACGCTTCTCGCTCTCCCCGGAGTCACCTAGTGCAG” here?
The binding signal was 4510 fluorescence intensity (a.u.).

For “CTAGGCAAGCATCCCACCTTCGTCGACCCACTGCTGCCGGCGGAGTCACCTAGTGCAG”, which binding signal is on record?
Its binding signal is 4050 fluorescence intensity (a.u.).

For “CTACCTGCGTCGACGTGTGACACCCAAATCATCGGATTCACGGAGTCACCTAGTGCAG”, which binding signal is on record?
The binding signal was 4680 fluorescence intensity (a.u.).

“CCCCGGGAGTAGGGTCGCTGATTACCTGGTGGGGAAGCACCGGAGTCACCTAGTGCAG” was tested. Which binding signal did it give?
Its binding signal is 3280 fluorescence intensity (a.u.).

For “TCCAAGAAACCTGTCCATGAAGATGATGTTGGCTGGCGTTCGGAGTCACCTAGTGCAG”, which binding signal is on record?
The binding signal was 3770 fluorescence intensity (a.u.).

With “GAGTAAGGCCGCGCGGCGCGGCGCCGAGCCGCGTGTCGCGCGGAGTCACCTAGTGCAG” as the sequence, how does the binding signal read?
Its binding signal is 4820 fluorescence intensity (a.u.).

How did the binding signal turn out when “TGACCATGAATTACGTGTTTTATTCGTAGTCAAATTTATTCGGAGTCACCTAGTGCAG” was run?
Its binding signal is 3510 fluorescence intensity (a.u.).

“GTGCCGTGCGTGCCAGCGTGCGTGCATGCATGCATGCACGCGGAGTCACCTAGTGCAG” was tested. Which binding signal did it give?
Its binding signal is 4270 fluorescence intensity (a.u.).

For “GTGCGTGGAAGTCCATGGCCGTCGTCGCCTCCACCTTCCACGGAGTCACCTAGTGCAG”, which binding signal is on record?
The binding signal was 3140 fluorescence intensity (a.u.).

For “CACGCGGGACCATCGTGGTCCCACGTTTTGGCGGTGCGGGCGGAGTCACCTAGTGCAG”, which binding signal is on record?
Its binding signal is 5060 fluorescence intensity (a.u.).

For “ATGGGCAACAAGCTTACGTCGAACGATACCTTGGCTAACTCGGAGTCACCTAGTGCAG”, which binding signal is on record?
Its binding signal is 3360 fluorescence intensity (a.u.).

How did the binding signal turn out when “GTAGTACATACATACATACACGACTAAAATACACGTACGTCGGAGTCACCTAGTGCAG” was run?
Its binding signal is 3200 fluorescence intensity (a.u.).

With “AGTGGGTGGTGGTGGTGGTGGTGGTGCGAGGCCGTCGCTGCGGAGTCACCTAGTGCAG” as the sequence, how does the binding signal read?
The binding signal was 3430 fluorescence intensity (a.u.).

Which binding signal does the source give for “TCTTTATAATAGGAGCACATCTCAACCGTTGGATCGGGCGCGGAGTCACCTAGTGCAG” here?
Its binding signal is 4420 fluorescence intensity (a.u.).

Which binding signal does the source give for “TCAATGTGTGCGTGTGTGGCCTATCTTTTCTTACTCTCTTCGGAGTCACCTAGTGCAG” here?
Its binding signal is 4970 fluorescence intensity (a.u.).

Which binding signal does the source give for “TGATTACACGTACAAAATGTACACGTGTCACTCTATGGGGCGGAGTCACCTAGTGCAG” here?
The binding signal was 25300 fluorescence intensity (a.u.).

How did the binding signal turn out when “CTGGTTCGATCTGTACACGTGTATAAGCTCTACCATCTTGCGGAGTCACCTAGTGCAG” was run?
The binding signal was 11800 fluorescence intensity (a.u.).

“ATCGATTCTCTTCATGTGATCTTCACGTGTCCGGCCAATTCGGAGTCACCTAGTGCAG” was tested. Which binding signal did it give?
The binding signal was 3940 fluorescence intensity (a.u.).

How did the binding signal turn out when “CGCACGCTCCCCGACTCCGACTCCGATCCTCTCTCACGCACGGAGTCACCTAGTGCAG” was run?
Its binding signal is 4900 fluorescence intensity (a.u.).

Which binding signal does the source give for “AAGGTTCATCGGACCCACGTGTCAGCTGATTGCTTATTCTCGGAGTCACCTAGTGCAG” here?
Its binding signal is 15900 fluorescence intensity (a.u.).

How did the binding signal turn out when “TGTGGGTTTATTGTCCAACGTTTAACCGTTCATCTTATTTCGGAGTCACCTAGTGCAG” was run?
Its binding signal is 3420 fluorescence intensity (a.u.).

For “CGTGCCGCCGATGCCTGTTGCCCTCGTGCCCACTGCCTAGCGGAGTCACCTAGTGCAG”, which binding signal is on record?
Its binding signal is 37500 fluorescence intensity (a.u.).

With “GGGAAATCCTACTCCTAATAAATCCTAGTAGGCCAACACCCGGAGTCACCTAGTGCAG” as the sequence, how does the binding signal read?
The binding signal was 28800 fluorescence intensity (a.u.).

Which binding signal does the source give for “TTTTGTTCATGTTGATGTCCACGGTGATTGTTCTAGTTATCGGAGTCACCTAGTGCAG” here?
The binding signal was 3210 fluorescence intensity (a.u.).

Which binding signal does the source give for “AGATGCCACGTGGGATAAAACCACCTTCGAAACTGCTCGGCGGAGTCACCTAGTGCAG” here?
Its binding signal is 11200 fluorescence intensity (a.u.).

With “CCAGAAGCAGGTACCCGGTGCTGAGGCTGGTGCCAGCGCACGGAGTCACCTAGTGCAG” as the sequence, how does the binding signal read?
Its binding signal is 3550 fluorescence intensity (a.u.).

“CGAGACGGCGTCACCGCCACACATGTAGCGTGCTGCGTGCCGGAGTCACCTAGTGCAG” was tested. Which binding signal did it give?
The binding signal was 5160 fluorescence intensity (a.u.).

“CAATCGCAACACTCCTCCCATTTAATTCTACCAACTTTCTCGGAGTCACCTAGTGCAG” was tested. Which binding signal did it give?
The binding signal was 3220 fluorescence intensity (a.u.).

With “CGGCGCACGTGCATGGCCAAGCCGGGGCGTGACACCACGGCGGAGTCACCTAGTGCAG” as the sequence, how does the binding signal read?
Its binding signal is 3650 fluorescence intensity (a.u.).

For “TGGGAGTTCGGAGCTGGTCAGCATTATCAAGCTTGAGCTGCGGAGTCACCTAGTGCAG”, which binding signal is on record?
The binding signal was 3170 fluorescence intensity (a.u.).

With “CGGTCAAAGCTTGCACTATAGTTATCAGGATTGAGCACCACGGAGTCACCTAGTGCAG” as the sequence, how does the binding signal read?
Its binding signal is 12500 fluorescence intensity (a.u.).

“GTTCCGGCGGGTGTACGGCACACTCAAGGCAGAGCTTCTCCGGAGTCACCTAGTGCAG” was tested. Which binding signal did it give?
The binding signal was 17800 fluorescence intensity (a.u.).

For “GTGGATGCTGCCGCGTCGCGACACGTCAGCGCGCGCTGGTCGGAGTCACCTAGTGCAG”, which binding signal is on record?
The binding signal was 20700 fluorescence intensity (a.u.).

“GGAGTTGTGCAGCCGCACCCAGTCATCCACTATCTCCTTCCGGAGTCACCTAGTGCAG” was tested. Which binding signal did it give?
The binding signal was 3440 fluorescence intensity (a.u.).
